Experiment [1] concerns the target mCherry-CENP-S (human) (UniProt Q8N2Z9). Kind of experiment: fluorescence cross-correlation spectroscopy (FCCS); EGFP- and mCherry-fusions co-expressed in living U2OS cells; 12 measurements in the cytoplasm.
The target of experiment [2] is EGFP-CENP-T (UniProt Q96BT3). Description: two-hybrid; mammalian fluorescent two-hybrid (F2H) in BHK cells with a lac-operator array; EGFP-tagged bait tethered by LacI-GBP, recruitment of mCherry-tagged prey seen by confocal microscopy of fixed cells; the paper says it is not clear that recruitment is through direct interactions.
Experiment [3] addresses CENP-S (yeast two-hybrid fusion) (human) (UniProt Q8N2Z9). Kind of experiment: two-hybrid; yeast two-hybrid; no details given.

By UniProt entry, the sequences of proteins in these tests, tags left out.
UniProt Q8N2Z9: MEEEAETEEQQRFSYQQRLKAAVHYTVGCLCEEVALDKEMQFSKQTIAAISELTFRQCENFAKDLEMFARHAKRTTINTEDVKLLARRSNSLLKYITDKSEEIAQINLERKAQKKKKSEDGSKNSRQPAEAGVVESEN
UniProt Q96BT3: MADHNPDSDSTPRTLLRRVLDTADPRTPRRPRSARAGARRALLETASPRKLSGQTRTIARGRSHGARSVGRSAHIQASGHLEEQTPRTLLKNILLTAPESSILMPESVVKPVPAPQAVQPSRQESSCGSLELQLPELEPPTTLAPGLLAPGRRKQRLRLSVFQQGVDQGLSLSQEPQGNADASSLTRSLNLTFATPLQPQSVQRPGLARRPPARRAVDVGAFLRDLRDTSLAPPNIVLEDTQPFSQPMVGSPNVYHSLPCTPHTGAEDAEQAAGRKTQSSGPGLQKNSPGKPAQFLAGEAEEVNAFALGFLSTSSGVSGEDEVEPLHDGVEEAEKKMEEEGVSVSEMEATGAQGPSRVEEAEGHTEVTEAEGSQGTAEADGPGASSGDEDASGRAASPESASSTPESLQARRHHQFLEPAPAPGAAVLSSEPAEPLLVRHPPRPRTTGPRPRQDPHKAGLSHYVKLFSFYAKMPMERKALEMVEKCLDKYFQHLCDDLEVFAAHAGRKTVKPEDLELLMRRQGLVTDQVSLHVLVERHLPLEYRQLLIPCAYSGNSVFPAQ
UniProt A8MT69: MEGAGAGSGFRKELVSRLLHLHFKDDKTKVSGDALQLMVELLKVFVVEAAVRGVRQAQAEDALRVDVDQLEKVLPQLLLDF
UniProt Q13352: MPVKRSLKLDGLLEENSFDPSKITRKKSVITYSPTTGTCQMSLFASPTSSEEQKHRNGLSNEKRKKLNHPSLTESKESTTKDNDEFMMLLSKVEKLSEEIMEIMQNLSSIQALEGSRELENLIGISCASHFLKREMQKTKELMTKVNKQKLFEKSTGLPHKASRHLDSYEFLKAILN
UniProt Q9NSP4: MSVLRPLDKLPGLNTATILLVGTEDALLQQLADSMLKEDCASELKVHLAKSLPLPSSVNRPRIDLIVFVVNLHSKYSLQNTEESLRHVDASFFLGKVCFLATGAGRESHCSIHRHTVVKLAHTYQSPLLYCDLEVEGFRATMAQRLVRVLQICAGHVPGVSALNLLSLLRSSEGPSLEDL

Results are given in words; binding and its absence hold for the method and conditions named. Some binding calls cover weakened binding; strength is not graded here.

Here are results for three substances from paper PMC3938055.

As for EGFP-CENP-X (from UniProt A8MT69 1-81), the binding result in experiment [1] is listed as “binds”. With “mCherry-CENP-R (from UniProt Q13352 1-177)”, in experiment [2], the binding entry is on record as “no binding”.

As to “CENP-M (yeast two-hybrid fusion) (from UniProt Q9NSP4 1-180)”, the binding entry in experiment [3] is reported as “no binding”.
